These are yes or no findings as the source states them, for the method shown. Binding seen in cells or lysates may run through a third protein. A result given as binding can be weak or reduced; the word gives no strength.
Molecular target: T1, Spn-E-mKate2 (Spindle-E with mKate2, endogenous knock-in, spn-E^mKate2.KI) (Drosophila (endogenous in ovaries)) (UniProt Q9VF26)
T1 sequence: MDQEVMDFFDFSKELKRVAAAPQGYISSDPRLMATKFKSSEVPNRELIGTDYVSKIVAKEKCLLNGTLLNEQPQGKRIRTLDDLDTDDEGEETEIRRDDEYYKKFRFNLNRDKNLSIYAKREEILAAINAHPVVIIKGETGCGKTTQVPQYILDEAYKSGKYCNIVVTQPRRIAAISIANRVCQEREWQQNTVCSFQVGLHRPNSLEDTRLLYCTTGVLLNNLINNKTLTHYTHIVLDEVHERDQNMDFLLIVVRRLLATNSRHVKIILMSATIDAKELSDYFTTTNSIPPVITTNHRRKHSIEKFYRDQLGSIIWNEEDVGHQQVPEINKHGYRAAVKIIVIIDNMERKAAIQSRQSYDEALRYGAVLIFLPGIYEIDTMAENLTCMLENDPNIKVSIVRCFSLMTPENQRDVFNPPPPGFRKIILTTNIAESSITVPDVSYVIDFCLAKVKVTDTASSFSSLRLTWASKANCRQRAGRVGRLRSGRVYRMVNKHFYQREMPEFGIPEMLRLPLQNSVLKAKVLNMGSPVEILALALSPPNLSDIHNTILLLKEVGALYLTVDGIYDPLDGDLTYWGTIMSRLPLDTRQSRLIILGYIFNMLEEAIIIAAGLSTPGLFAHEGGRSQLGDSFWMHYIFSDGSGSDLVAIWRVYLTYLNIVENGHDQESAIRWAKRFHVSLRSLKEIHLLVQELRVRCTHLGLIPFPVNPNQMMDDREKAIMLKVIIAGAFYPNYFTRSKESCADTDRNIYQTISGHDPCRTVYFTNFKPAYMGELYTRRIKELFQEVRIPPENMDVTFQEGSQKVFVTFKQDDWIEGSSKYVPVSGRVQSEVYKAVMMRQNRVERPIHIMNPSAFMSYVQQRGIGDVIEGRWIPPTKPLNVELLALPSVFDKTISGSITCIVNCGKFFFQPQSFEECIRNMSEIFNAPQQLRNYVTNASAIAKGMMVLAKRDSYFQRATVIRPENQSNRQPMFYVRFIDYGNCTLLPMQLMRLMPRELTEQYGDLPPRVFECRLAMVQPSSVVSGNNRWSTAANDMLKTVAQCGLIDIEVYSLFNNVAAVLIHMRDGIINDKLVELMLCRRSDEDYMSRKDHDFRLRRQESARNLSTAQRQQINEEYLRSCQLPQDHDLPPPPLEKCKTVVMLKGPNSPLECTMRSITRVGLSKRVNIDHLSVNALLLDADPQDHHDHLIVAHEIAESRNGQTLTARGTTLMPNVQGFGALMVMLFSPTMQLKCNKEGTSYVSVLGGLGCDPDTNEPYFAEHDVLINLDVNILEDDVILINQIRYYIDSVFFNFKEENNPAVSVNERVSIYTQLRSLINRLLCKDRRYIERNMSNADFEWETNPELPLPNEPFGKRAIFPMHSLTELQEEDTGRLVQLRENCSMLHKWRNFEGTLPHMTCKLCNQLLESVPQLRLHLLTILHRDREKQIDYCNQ
Assay: co-IP

- binding: binds
Substance: Tejas (Tej), endogenous (Drosophila (endogenous in ovaries))

— publication doi:10.1101/2022.07.12.499660
